In publication PMC8991965:
Results are given in words; binding and its absence hold for the method and conditions named. Binding seen in cells or lysates may run through a third protein. Some results given as binding are weak or reduced against the parent protein; the word gives no strength.

By UniProt entry, the sequences of proteins in these tests, tags left out.
UniProt P31749: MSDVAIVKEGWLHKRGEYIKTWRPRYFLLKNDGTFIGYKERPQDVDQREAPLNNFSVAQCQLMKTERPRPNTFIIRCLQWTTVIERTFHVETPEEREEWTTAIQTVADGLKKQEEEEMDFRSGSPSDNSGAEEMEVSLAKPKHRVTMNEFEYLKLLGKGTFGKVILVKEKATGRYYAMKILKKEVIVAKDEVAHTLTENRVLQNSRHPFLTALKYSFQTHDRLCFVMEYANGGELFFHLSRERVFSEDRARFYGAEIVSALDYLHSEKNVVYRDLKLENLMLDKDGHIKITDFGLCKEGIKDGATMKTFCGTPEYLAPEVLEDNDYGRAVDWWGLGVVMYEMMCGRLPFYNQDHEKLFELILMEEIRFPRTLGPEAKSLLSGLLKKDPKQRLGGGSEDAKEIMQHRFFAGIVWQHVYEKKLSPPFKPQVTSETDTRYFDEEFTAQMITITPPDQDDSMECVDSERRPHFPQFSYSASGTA
UniProt Q8IZL8: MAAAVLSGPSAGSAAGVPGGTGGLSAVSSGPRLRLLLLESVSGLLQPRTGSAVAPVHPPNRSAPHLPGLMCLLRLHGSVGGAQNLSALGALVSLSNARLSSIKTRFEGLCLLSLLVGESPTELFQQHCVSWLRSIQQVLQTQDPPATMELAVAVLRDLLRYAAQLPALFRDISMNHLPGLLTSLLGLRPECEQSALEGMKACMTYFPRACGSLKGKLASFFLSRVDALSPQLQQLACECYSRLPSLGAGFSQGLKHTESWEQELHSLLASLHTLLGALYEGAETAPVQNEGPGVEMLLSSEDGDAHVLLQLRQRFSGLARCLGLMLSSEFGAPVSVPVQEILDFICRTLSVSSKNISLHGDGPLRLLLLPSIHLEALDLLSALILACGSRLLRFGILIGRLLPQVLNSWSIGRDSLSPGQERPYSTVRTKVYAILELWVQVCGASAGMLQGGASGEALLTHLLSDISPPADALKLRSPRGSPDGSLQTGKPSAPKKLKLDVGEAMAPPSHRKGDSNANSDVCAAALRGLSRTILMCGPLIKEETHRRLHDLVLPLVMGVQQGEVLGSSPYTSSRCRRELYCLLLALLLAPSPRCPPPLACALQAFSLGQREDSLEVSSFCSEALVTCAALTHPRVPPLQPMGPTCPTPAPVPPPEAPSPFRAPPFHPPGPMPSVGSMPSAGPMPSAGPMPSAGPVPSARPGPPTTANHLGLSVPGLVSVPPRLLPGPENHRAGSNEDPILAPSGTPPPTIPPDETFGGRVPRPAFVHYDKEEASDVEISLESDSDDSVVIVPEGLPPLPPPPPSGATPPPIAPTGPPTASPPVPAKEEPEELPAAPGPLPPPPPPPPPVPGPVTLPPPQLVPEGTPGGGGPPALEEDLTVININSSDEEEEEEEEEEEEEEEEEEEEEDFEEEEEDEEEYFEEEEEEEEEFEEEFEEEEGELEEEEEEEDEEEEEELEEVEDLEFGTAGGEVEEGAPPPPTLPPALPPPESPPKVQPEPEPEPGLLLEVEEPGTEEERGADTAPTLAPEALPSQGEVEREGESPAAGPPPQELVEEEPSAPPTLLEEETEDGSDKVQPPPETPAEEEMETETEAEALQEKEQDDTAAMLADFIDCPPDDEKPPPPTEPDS

Biological target: GST-tagged Akt1 protein (UniProt P31749)
Test: pull-down; GST-vector or GST-Akt purified from HEK293T cells incubated with total lysates of MCF7 cells in 10% serum; Western blot of eluates; only the target purified

Substance: Proline-, glutamic acid-, and leucine-rich protein 1 (PELP1), endogenous (from UniProt Q8IZL8 1-1130)
- binding: binds
